Results as given in article doi:10.1101/353086.
Where two headings read alike, the source gives them in different places. These are yes or no findings as the source states them, for the method shown. Binding seen in cells or lysates may run through a third protein. Some entries that bind do so weakly or less than the wild type. For part of these data: Sequences can lack the tags named with a protein.

Sequences of proteins named here, by UniProt entry; tags and fusion partners are left off.
UniProt P61026: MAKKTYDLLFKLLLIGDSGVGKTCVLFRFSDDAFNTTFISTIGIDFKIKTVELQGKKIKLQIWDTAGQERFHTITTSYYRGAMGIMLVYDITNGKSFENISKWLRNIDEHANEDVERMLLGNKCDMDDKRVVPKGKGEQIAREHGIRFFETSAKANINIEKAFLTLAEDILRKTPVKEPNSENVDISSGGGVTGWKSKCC
UniProt Q00610: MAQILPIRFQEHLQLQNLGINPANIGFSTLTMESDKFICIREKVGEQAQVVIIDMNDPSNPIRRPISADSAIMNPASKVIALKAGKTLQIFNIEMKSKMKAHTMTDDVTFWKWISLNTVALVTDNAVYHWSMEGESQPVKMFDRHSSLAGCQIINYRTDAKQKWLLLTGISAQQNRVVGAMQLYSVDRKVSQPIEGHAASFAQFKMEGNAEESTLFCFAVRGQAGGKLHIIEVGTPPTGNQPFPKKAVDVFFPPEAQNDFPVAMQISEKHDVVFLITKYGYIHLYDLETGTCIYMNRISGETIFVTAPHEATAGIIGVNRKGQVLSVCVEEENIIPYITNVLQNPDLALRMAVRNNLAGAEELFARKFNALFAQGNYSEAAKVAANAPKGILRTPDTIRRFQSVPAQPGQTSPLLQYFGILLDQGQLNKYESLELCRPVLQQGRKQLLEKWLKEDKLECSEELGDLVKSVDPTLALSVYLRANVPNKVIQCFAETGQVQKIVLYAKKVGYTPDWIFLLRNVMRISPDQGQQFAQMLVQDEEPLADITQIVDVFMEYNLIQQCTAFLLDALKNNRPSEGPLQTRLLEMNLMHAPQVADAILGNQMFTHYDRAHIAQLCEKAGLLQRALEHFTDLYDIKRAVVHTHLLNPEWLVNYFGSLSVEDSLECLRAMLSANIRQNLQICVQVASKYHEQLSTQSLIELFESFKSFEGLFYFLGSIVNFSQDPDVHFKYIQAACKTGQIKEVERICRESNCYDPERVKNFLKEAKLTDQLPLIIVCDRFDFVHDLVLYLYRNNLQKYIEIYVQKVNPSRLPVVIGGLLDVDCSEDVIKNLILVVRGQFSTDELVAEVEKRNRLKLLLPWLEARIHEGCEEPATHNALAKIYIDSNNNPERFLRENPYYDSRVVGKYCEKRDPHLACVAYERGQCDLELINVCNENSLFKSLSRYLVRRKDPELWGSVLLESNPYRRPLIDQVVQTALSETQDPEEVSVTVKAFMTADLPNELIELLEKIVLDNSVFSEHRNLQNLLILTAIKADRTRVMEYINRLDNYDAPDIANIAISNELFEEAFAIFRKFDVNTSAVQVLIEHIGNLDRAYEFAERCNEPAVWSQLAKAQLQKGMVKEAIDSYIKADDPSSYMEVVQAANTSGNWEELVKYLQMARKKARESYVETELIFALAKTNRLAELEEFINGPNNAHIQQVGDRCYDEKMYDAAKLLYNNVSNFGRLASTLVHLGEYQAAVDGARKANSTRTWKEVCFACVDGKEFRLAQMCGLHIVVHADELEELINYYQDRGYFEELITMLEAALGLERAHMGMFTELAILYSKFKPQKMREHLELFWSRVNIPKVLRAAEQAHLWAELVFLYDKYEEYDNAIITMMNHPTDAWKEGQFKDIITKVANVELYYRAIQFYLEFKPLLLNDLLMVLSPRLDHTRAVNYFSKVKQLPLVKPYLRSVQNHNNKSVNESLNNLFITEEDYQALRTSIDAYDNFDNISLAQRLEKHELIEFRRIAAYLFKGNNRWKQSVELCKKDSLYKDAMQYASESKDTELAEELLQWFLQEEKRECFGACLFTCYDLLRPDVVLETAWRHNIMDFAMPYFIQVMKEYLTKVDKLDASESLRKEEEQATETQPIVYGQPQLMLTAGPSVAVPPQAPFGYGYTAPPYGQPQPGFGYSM

T1: GFP-GGA2 (Golgi-localized gamma ear-containing Arf-binding protein 2) (human), Q9UJY4
T1 chain: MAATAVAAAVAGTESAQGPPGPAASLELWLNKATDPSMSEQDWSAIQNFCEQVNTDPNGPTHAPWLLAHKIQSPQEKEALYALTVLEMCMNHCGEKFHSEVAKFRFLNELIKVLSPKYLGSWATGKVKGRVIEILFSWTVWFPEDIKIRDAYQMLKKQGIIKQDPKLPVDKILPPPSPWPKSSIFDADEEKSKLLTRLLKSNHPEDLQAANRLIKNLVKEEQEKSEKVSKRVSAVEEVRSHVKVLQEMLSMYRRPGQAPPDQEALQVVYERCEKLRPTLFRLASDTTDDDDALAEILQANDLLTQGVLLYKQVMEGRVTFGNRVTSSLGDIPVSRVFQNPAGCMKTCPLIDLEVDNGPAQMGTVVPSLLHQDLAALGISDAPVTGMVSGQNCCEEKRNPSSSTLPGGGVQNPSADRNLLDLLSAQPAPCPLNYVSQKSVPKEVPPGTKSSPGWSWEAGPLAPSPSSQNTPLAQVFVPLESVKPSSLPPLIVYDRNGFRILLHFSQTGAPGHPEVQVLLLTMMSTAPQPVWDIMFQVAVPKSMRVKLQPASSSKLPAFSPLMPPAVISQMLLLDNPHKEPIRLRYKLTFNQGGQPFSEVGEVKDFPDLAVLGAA


Tests used:
Experiment in all cases: co-IP
[1] = target: GFP-GGA2 (Golgi-localized gamma ear-containing Arf-binding protein 2) (human) (UniProt Q9UJY4)
[2] = target: GFP-GGA2 (Golgi-localized gamma ear-containing Arf-binding protein 2) (human) (UniProt Q9UJY4); remark: listed apart in the source
[3] = target: T1, GFP-GGA2 (Golgi-localized gamma …); conditions: remark: other sources report otherwise
[4] = target: T1, GFP-GGA2 (Golgi-localized gamma …); conditions: remark: other sources report otherwise

Molecule | binding [1] | binding [2] | binding [3] | binding [4]
RAB10 (endogenous) (from UniProt P61026 1-200) | binds |  |  | 
RAB13 (endogenous) (protein, UniProt P51153 1-203) MAKAYDHLFKLLLIGDSGVGKTCLIIRFAEDNFNNTYISTIGIDFKIRTVDIEGKKIKLQVWDTAGQERFKTITTAYYRGAMGIILVYDITDEKSFENIQNWMKSIKENASAGVERLLLGNKCDMEAKRKVQKEQADKLAREHGIRFFETSAKSSMNVDEAFSSLARDILLKSGGRRSGNGNKPPSTDLKTCDKKNTNKCSLG | binds |  |  | 

Now from value to molecule:

binding [1] | binding [2] | binding [3] | binding [4] | Molecule
binds | binds |  |  | clathrin (endogenous) (from UniProt Q00610 1-1675)
 |  | binds | binds | GGA3 (endogenous), Q9NZ52 1-723 (protein) MAEAEGESLESWLNKATNPSNRQEDWEYIIGFCDQINKELEGPQIAVRLLAHKIQSPQEWEALQALTVLEACMKNCGRRFHNEVGKFRFLNELIKVVSPKYLGDRVSEKVKTKVIELLYSWTMALPEEAKIKDAYHMLKRQGIVQSDPPIPVDRTLIPSPPPRPKNPVFDDEEKSKLLAKLLKSKNPDDLQEANKLIKSMVKEDEARIQKVTKRLHTLEEVNNNVRLLSEMLLHYSQEDSSDGDRELMKELFDQCENKRRTLFKLASETEDNDNSLGDILQASDNLSRVINSYKTIIEGQVINGEVATLTLPDSEGNSQCSNQGTLIDLAELDTTNSLSSVLAPAPTPPSSGIPILPPPPQASGPPRSRSSSQAEATLGPSSTSNALSWLDEELLCLGLADPAPNVPPKESAGNSQWHLLQREQSDLDFFSPRPGTAACGASDAPLLQPSAPSSSSSQAPLPPPFPAPVVPASVPAPSAGSSLFSTGVAPALAPKVEPAVPGHHGLALGNSALHHLDALDQLLEEAKVTSGLVKPTTSPLIPTTTPARPLLPFSTGPGSPLFQPLSFQSQGSPPKGPELSLASIHVPLESIKPSSALPVTAYDKNGFRILFHFAKECPPGRPDVLVVVVSMLNTAPLPVKSIVLQAAVPKSMKVKLQPPSGTELSPFSPIQPPAAITQVMLLANPLKEKVRLRYKLTFALGEQLSTEVGEVDQFPPVEQWGNL
